54 sequences from PMC7819943, “Rice protein-binding microarrays: a tool to detect cis-acting elements near promoter regions in rice” can be followed below.

The chains behind the UniProt entries cited, without tags or fusion partners.
UniProt Q0JBA9, entry or part of it: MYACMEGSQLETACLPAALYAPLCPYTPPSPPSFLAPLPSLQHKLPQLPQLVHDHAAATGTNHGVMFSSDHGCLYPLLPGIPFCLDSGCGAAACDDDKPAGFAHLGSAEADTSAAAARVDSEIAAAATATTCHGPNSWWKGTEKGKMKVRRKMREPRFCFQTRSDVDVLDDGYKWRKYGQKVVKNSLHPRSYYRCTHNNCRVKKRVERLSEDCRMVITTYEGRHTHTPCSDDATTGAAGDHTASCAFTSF

Some of the results follow.

The target of this test is OsWRKY34 (Oryza sativa, UniProt Q0JBA9 1-250). In words: protein-binding microarray (RPBM); PBS, 2% BSA, 51.3 ng/ul salmon testes DNA, 50 uM zinc acetate, 200 nM TF, 25 C, 1 h; high values mean tight binding. The settings on record: protein: recombinant; tags: N-terminal polyhistidine and DsRed monomer fusion (pET32a); label: CyDye5-dUTP incorporated in the synthesized complementary strand; 3' TTTTT single-stranded linker to array surface; dsDNA, one strand shown. In outline: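 The binding signal is fluorescence intensity per feature, in arbitrary units, read on an Axon 4000B scanner. Polyhistidine- and DsRed-tagged transcription factors (N-terminal fusions) from E. coli BL21-CodonPlus were purified on Ni–NTA and applied at 200 nM for 1 h at 25 °C to a double-stranded, BSA-blocked custom Agilent array in buffer with 50 µM zinc acetate.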
With “TACTTTTTTCATCTGGGTCCCTTGCCGCCCTCTATTGGGGCGGAGTCACCTAGTGCAG”, the binding signal was 10400 fluorescence intensity (a.u.).
Next, “TCCAAATATTAATCCCACACAAATTAAAATCCAATCCATTCGGAGTCACCTAGTGCAG”: 8160 fluorescence intensity (a.u.); “TGCCATTGTGCCTTTCTGCGTGCTCACTACTAGCCAGTGCCGGAGTCACCTAGTGCAG”: 10600 fluorescence intensity (a.u.); “GAATTTGACACCACCACCATTATGTGGGTCCCCGCAAATACGGAGTCACCTAGTGCAG”: 8250 fluorescence intensity (a.u.).
In the case of “TTGTGACATTTTGATGCACCTTATGGTCACGCGCGTATTCCGGAGTCACCTAGTGCAG” it was 12500 fluorescence intensity (a.u.).
“AGGGTGTCGTATGGGGTGTTCGGGCACTAATAAAAAAACTCGGAGTCACCTAGTGCAG”: the binding signal is 9220 fluorescence intensity (a.u.).
On to “ACCGAGGTGGGAGGTGGGTTTTGGGCCTTGGTAAGGAGGGCGGAGTCACCTAGTGCAG”, for which the binding signal was 13500 fluorescence intensity (a.u.).
In the case of “GCATCCATCGGAATTCTCGTCGACCACCGCAACCGCCATGCGGAGTCACCTAGTGCAG” it was 8580 fluorescence intensity (a.u.); in that of “AGAAATGGTGGGGTTCTTCAGCCTCTGTTCTTCCACTCATCGGAGTCACCTAGTGCAG”, 8030 fluorescence intensity (a.u.); in that of “GTTGGTTGGTTGCAACGGCGTGGGATATTGGTAGGCTGGTCGGAGTCACCTAGTGCAG”, 11800 fluorescence intensity (a.u.).
Consider “CGATTCGCGCCGCCGAGAGTTCTGTGTCTCTCTCTTCTTCCGGAGTCACCTAGTGCAG”, for which the binding signal was 10300 fluorescence intensity (a.u.).
For “GCTTGCTTGGTTGGTTGGTGGAGCTTGGGAGTTGAGGTCACGGAGTCACCTAGTGCAG”, the binding signal is 11500 fluorescence intensity (a.u.).
Regarding “ATTAGTCCATGCCATGTGGGCCCTGTGTGTTTGGGTGCTGCGGAGTCACCTAGTGCAG”, the binding signal is 9830 fluorescence intensity (a.u.).
Regarding “CGTCGCTTCTCTTCTTGAAGACGTTGTTTTGGCATCCTATCGGAGTCACCTAGTGCAG”, the binding signal is 8040 fluorescence intensity (a.u.).
“ACAAGTCACTCACTGCTTCACTGCATTCAGTTTACTCTTCCGGAGTCACCTAGTGCAG”: the binding signal was 11300 fluorescence intensity (a.u.).
For the sequence “TGCTGCTGCTGCTACTAGTCTTTATCCTTTGCTTTCCACTCGGAGTCACCTAGTGCAG”, the binding signal was 9860 fluorescence intensity (a.u.).
In the case of “CTATTTTGCTTCCCTGGTTGTCGTGCCCGTCGTGCTGAGGCGGAGTCACCTAGTGCAG” it was 8380 fluorescence intensity (a.u.); in that of “CCATTTCCTTATCCAGTTATCTGGTACTCCTACCTGCTTACGGAGTCACCTAGTGCAG”, 9100 fluorescence intensity (a.u.).
“CGCATCCACCGCCCGCGCGCGCACCAAACCGAGCTCCGATCGGAGTCACCTAGTGCAG”: the binding signal was 8430 fluorescence intensity (a.u.).
In the case of “AGGGATGAGGCTATTAAGTGTTTTGTTTGGTTGGGAGACACGGAGTCACCTAGTGCAG” it was 9550 fluorescence intensity (a.u.).
With “ATTGGAGTGGGGCTCTTTCTTCTTTCGTTTCTATTCATGTCGGAGTCACCTAGTGCAG”, the binding signal was 11300 fluorescence intensity (a.u.).
For the sequence “ATAACTGATTAGTGGTTGTTTAGTAGCTGTTGGGGTTTACCGGAGTCACCTAGTGCAG”, the binding signal is 11000 fluorescence intensity (a.u.).
With “TCTCTTCTCCTTCCATTTTTCTTGTGCACTTCTCTTTCCCCGGAGTCACCTAGTGCAG”, the binding signal is 8450 fluorescence intensity (a.u.).
In the case of “TTAATACTTGCTTTATTGTGCAGAGGTGGGCTGTTGACATCGGAGTCACCTAGTGCAG”, the binding signal was 13600 fluorescence intensity (a.u.).
For the sequence “ATCCTGTATCGTCCAGAATGCTTCTTCCATCCTAATCACCCGGAGTCACCTAGTGCAG”, the binding signal was 9220 fluorescence intensity (a.u.).
For the sequence “GCGTGGGTTCAAATCCCACAGCTGTCATAATTTTTCTTCCCGGAGTCACCTAGTGCAG”, the binding signal was 8270 fluorescence intensity (a.u.).
Next, “GAGGACAACAGACGGTCAAGATCTTCCCAACATATCCCCACGGAGTCACCTAGTGCAG”: 8500 fluorescence intensity (a.u.); “TCCTCTCCCGCCTCGCCCCGTCGACTTCCTCCCCAACACGCGGAGTCACCTAGTGCAG”: 10800 fluorescence intensity (a.u.); “ATTTGTTCTGCAATCTACATATGGTTCTTGTATTTCATTTCGGAGTCACCTAGTGCAG”: 12100 fluorescence intensity (a.u.).
As for “CCGACTGTCTGCTGCTTCACATGTGGTTGTGTTTGCAACCCGGAGTCACCTAGTGCAG”, the binding signal is 8390 fluorescence intensity (a.u.).
Turning to “GCCACACACACAATTACTACTACTTCTACGTACATCATCACGGAGTCACCTAGTGCAG”, the binding signal was 8330 fluorescence intensity (a.u.).
Take “CCACCACCTCACATAATTTCCGTCCACACCTTTCGAGGCTCGGAGTCACCTAGTGCAG”: the binding signal is 9090 fluorescence intensity (a.u.).
On to “AAGGGCTCGATGATTCTTCGTTTTGGTAAGCTACTCCTATCGGAGTCACCTAGTGCAG”, for which the binding signal is 8080 fluorescence intensity (a.u.).
Consider “CGCTTCTTTCTACTGTGTGTCTGTACTCTTGTGTGTTCCACGGAGTCACCTAGTGCAG”, for which the binding signal was 13100 fluorescence intensity (a.u.).
With “TCTCATGAACTTGGGCCGAGCTTGTGACATGTCCCGTCTTCGGAGTCACCTAGTGCAG”, the binding signal was 9470 fluorescence intensity (a.u.).
On to “ATTGTTTGGGGTACTTTTTGCATCTGGTTCCCTTGCCGCCCGGAGTCACCTAGTGCAG”, for which the binding signal was 8900 fluorescence intensity (a.u.).
Regarding “GCTATTTTCTTGCCCATGATGATCTATTAATGCTGATTCTCGGAGTCACCTAGTGCAG”, the binding signal was 9730 fluorescence intensity (a.u.).
Next, “CATACCTTCCGTATTAGTAGAAGGTACTAAAATTGACATTCGGAGTCACCTAGTGCAG”: 10800 fluorescence intensity (a.u.).
With “GCGGATTTCCTTTCTAAACGTGCCAACGATGTGTTCTTGTCGGAGTCACCTAGTGCAG”, the binding signal is 8250 fluorescence intensity (a.u.).
Regarding “GGCGTAGTTCAGTCTCTGGCTCCTTCGGCAACGACCTCAACGGAGTCACCTAGTGCAG”, the binding signal was 9070 fluorescence intensity (a.u.).
In the case of “ACCTCTTTTGACTCGTTCAATTCCTTTTCTTTTTTTGGCACGGAGTCACCTAGTGCAG” it was 8680 fluorescence intensity (a.u.); in that of “GGATTACTAGTAGTTTTCTTGTTCTTTTCTTCATGTGCGTCGGAGTCACCTAGTGCAG”, 13400 fluorescence intensity (a.u.).
Consider “AAACTTTCTTACTGATGATTTAGTGCTTAGAGCTTCTTCACGGAGTCACCTAGTGCAG”, for which the binding signal is 8750 fluorescence intensity (a.u.).
“CTCCGCCGCCGTCCCGCCCGCCACCTCCCCGCACCGCGGCCGGAGTCACCTAGTGCAG”: the binding signal is 8890 fluorescence intensity (a.u.).
Regarding “CGATACACCGGCGCTCTCCGGTCCCATCACCATCGCCATGCGGAGTCACCTAGTGCAG”, the binding signal is 8800 fluorescence intensity (a.u.).
Turning to “TAGTTGTTATCTTCGCTTTGGGTGGTTGGTAGAAGGGACCCGGAGTCACCTAGTGCAG”, the binding signal was 10100 fluorescence intensity (a.u.).
For “TTCTTTTTTTGTGGGGAGAGGCGGGCTGTTTTTTTCTTGCCGGAGTCACCTAGTGCAG”, the binding signal is 15900 fluorescence intensity (a.u.).
Next, “CCTCAGGTCTCTATAAGCTATAAAGGGTTTTGGTTGGATACGGAGTCACCTAGTGCAG”: 8500 fluorescence intensity (a.u.).
Next, “TTCCCAGTCTTTGGACCGTGGTTCAGACCTTAGCTTCACTCGGAGTCACCTAGTGCAG”: 9410 fluorescence intensity (a.u.); “CGCCACTGCCTATTCTATCTATATCGTGTGCACTTGAGGTCGGAGTCACCTAGTGCAG”: 8280 fluorescence intensity (a.u.); “TACTCAATTTTTTTTTCTGCCTTTTACCATCTCTTTAATACGGAGTCACCTAGTGCAG”: 8110 fluorescence intensity (a.u.).
With “TAATATTGGTACGCGTCGTCTCCTTCCTTCGTCTCGCTCGCGGAGTCACCTAGTGCAG”, the binding signal is 12000 fluorescence intensity (a.u.).
Take “GTGACCGTTCCCTGCACCCTGTCTACAAGAGCCATACCTCCGGAGTCACCTAGTGCAG”: the binding signal was 8250 fluorescence intensity (a.u.).
In the case of “TTGTCAGTTTTCTCTAAACCACAGTAATTAGTCAGTTTCACGGAGTCACCTAGTGCAG”, the binding signal was 8420 fluorescence intensity (a.u.).
